Experimental data reported in article PMC10681259.
These are yes or no findings as the source states them, for the method shown. In cells and extracts the contact can be indirect. Some results given as binding are weak or reduced against the parent protein; the word gives no strength. Where a sequence is shown, tags or fusion partners need not be part of it.

Target: T1, Ssd1-TAP (S. cerevisiae) (UniProt P24276)
T1 sequence: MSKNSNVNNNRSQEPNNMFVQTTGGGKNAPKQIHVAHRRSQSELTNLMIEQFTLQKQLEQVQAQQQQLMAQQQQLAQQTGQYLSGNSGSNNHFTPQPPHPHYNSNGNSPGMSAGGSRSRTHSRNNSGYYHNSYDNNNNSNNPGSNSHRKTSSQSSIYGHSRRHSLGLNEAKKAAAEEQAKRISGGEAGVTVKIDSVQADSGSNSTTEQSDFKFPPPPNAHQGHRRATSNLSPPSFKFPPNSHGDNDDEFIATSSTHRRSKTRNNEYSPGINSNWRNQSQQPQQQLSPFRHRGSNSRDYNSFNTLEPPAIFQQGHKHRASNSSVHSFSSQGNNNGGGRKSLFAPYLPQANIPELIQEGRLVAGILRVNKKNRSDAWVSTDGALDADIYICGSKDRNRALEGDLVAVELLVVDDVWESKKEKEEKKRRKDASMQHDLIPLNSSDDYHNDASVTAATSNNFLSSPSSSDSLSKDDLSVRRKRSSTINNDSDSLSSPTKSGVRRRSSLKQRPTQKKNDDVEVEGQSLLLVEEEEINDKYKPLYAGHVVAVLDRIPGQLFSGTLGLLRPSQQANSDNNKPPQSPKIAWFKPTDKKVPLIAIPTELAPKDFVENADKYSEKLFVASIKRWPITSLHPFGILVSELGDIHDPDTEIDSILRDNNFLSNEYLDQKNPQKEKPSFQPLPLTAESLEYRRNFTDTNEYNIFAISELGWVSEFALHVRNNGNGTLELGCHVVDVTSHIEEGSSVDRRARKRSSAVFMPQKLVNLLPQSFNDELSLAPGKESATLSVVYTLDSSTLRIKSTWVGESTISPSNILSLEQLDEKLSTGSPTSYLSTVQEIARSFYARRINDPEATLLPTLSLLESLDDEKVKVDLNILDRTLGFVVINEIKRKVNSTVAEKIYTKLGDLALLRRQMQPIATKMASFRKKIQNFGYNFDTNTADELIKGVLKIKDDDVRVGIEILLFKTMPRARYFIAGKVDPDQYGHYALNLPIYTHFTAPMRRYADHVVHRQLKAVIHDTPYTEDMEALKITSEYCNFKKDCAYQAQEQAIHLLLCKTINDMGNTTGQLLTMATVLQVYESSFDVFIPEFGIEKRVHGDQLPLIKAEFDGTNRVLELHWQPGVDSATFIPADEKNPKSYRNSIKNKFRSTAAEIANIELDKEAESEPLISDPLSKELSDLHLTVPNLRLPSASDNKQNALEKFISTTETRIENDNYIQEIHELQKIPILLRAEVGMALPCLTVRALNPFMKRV
Test: co-IP; Ssd1-TAP or eIF2A-TAP as bait on IgG-coupled magnetic beads from yeast lysate, beads washed 3 times, with or without micrococcal nuclease before elution; Western blot with PAP, anti-HA or anti-XrnI antibodies

B1: eIF2A-HA (protein, UniProt P53235 1-642)
chain: MSSQFFLKTSQDIELFQSYPTFEQSNTNSKDFPVISSVLSPCGRFLALSTKENVKVFTGPCLDNVLLTMKLSDVYDLHFSPAGNYLSTWERASIQDPNHKNVKVWYLNKPFKKDCVSEDIVPAYEYQAKSQSGWFLQFSKLDNYGLRLFKHDLKIVKLSSANADNFDFQSPFAVLSDDETSQHFTTYLISPAEHPTICTFTPEKGGKPAQLIIWALSEGKITKKIASKTFFKADSCQLKWNPLGNAILCLAITDFDSSNKSYYGENTLYLLSFQGVNGTLGGNSVRVSLTTGPVHDFTWSPTSRQFGVIAGYMPATISFFDLRGNVVHSLPQQAKNTMLFSPSGHYILIAGFGNLQGSVEILDRLDKFKCVSKFDATNTSVCKWSPGGEFIMTATTSPRLRVDNGVKIWHVSGSLVFVKEFKELLKVDWRSPCNYKTLENKDEAFFENHIINNWEPLPDSTTSSLDPKISNKSELQIHSSVQEYISQHPSREASSNGNGSKAKAGGAYKPPHARRTGGGRIVPGVPPGAAKKTIPGLVPGMSANKDANTKNRRRRANKKSSETSPDSTPAPSAPASTNAPTNNKETSPEEKKIRSLLKKLRAIETLKERQAVGDKLEDTQVLKIQTEEKVLKDLEKLGWKDE
For B1, the binding was “binds”.
